Values quoted from earlier work, collected in patent US20180282415A1, “Combination of a PD-1 Axis Binding Antagonist and an ALK Inhibitor for Treating ALK-Negative Cancer” (Merck Patent GmbH, priority 2015, published 2018).
For at least one compound, name, drawing or mass did not settle the structure.

Test system: peripheral blood mononuclear cells (PMBCs)
Conditions: published studies (Stehle et al. 2013); cited from earlier work

Structure (SMILES) | Effect on cell proliferation and cell viability
CNC(=O)c1ccccc1Sc1ccc2c(/C=C/c3ccccn3)n[nH]c2c1 [Axitinib, axitinib] | dose-dependent inhibition of both cell proliferation and cell viability
CCN(CC)CCNC(=O)c1c(C)[nH]c(/C=C2\C(=O)Nc3ccc(F)cc32)c1C [Sunitinib, sunitinib] | dose-dependent inhibition of both cell proliferation and cell viability
